Experimental data as given in PMC2681411.
Results are given in words; binding and its absence hold for the method and conditions named. In cells and extracts the contact can be indirect. Some entries that bind do so weakly or less than the wild type.

The chains behind the UniProt entries cited, without tags or fusion partners.
UniProt Q07817: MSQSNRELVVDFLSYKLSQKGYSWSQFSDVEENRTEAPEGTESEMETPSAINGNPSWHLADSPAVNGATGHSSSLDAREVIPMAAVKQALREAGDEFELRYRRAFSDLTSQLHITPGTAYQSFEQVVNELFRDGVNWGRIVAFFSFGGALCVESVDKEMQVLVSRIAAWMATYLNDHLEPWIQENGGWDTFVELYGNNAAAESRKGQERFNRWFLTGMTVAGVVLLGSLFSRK
UniProt Q8K1M6: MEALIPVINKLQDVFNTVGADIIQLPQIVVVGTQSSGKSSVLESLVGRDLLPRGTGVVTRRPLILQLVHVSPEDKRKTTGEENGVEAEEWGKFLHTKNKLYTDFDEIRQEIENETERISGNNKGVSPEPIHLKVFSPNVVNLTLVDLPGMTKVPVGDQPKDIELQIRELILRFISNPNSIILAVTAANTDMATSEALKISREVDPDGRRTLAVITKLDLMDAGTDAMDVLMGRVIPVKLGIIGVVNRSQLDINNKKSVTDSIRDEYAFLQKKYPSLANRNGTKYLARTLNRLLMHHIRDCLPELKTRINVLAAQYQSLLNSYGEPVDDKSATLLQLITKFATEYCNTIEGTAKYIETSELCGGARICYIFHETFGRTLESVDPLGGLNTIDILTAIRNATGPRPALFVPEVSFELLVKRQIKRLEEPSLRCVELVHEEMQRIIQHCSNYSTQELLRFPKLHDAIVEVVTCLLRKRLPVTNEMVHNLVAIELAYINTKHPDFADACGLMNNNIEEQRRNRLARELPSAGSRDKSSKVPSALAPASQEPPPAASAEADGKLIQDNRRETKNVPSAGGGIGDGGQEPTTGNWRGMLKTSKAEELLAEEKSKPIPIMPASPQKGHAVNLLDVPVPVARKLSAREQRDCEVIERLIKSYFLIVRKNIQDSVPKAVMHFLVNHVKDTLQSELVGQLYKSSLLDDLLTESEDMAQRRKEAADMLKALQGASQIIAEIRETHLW

Target: FLAG-tagged BCL-XL (UniProt Q07817)
Experiment: co-IP; Bax-/-/Bak-/- MEFs overexpressing FLAG-Bcl-xL treated with DMSO, 100 uM BID BH3 peptide or 100 uM mutant BID BH3 peptide for 10 minutes; lysis in 50 mM Tris HCl pH 7.4, 150 mM NaCl, 1 mM EDTA, 1% Triton X-100; ANTI-FLAG M2 affinity gel overnight at 4 C; blot for DRP1; twofold more DRP1 with BID BH3 peptide than with mutant BID BH3 peptide

binding: binds
Substance: dynamin-related protein 1 (DRP1) (from UniProt Q8K1M6 1-736)
